Data as given in PubChem BioAssay AID1224829 (NIAID, 2016).
In all, the deposit lists about 3,800 reagents; shown is an unselected part. 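Calls cover raised and lowered translocation; gene median uses one vendor's three siRNAs; qiagen siRNAs acted more weakly than ambion siRNAs.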 Unmarked entries are inactive. Further read-outs or replicates are left out here.

Aim: 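Follow-up of TLR4-NF-kappaB regulators using six separate siRNAs for each gene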 (follow-up of hits)
Cell system: mouse RAW264.7 G9 macrophage reporter cells
Reagent: single siRNA against mouse genes, 100 nM
Time to read-out: 2 days of siRNA knock-down, then 40 min of LPS before fixing
Treatment: LPS (Salmonella minnesota R595) at 10 ng/ml
Measured: 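Imaging of GFP-p65 after 40 min of LPS; nuclear over perinuclear ring intensity ratio, scaled to plate median and non-targeting control wells, given as z-score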
Scale: p65 translocation z-score: higher = more nuclear NF-kappaB p65 after LPS
Call rule: 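An siRNA is called active when the mean z-score of its two replicates is above 2 or below -2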
Meaning of the calls: active = changed p65 translocation (either direction); inactive = no clear change

gene symbol	PubChem SID	siRNA vendor or control pool	p65 translocation z-score, replicate mean
Calm4	SID315487053	ambion single siRNA	-0.411
Calm4	SID315487054	ambion single siRNA	-0.0823
Calm4	SID315487055	ambion single siRNA	-1.43
Calm4	SID315487056	qiagen single siRNA	3.34 (active)
Calm4	SID315487057	qiagen single siRNA	0.25
Calm4	SID315487058	qiagen single siRNA	-1.38
Orc5	SID315485295	ambion single siRNA	-2.9 (active)
Orc5	SID315485296	ambion single siRNA	1.42
Orc5	SID315485297	ambion single siRNA	-2.07 (active)
Orc5	SID315485298	qiagen single siRNA	2.38 (active)
Orc5	SID315485299	qiagen single siRNA	1.61
Orc5	SID315485300	qiagen single siRNA	1.21
Cnpy3	SID315486693	ambion single siRNA	-4.96 (active)
Cnpy3	SID315486694	ambion single siRNA	0.546
Cnpy3	SID315486695	ambion single siRNA	-1.23
Cnpy3	SID315486696	qiagen single siRNA	-0.486
Cnpy3	SID315486697	qiagen single siRNA	-0.988
Cnpy3	SID315486698	qiagen single siRNA	-2.43 (active)
Cpq	SID315485691	ambion single siRNA	-0.192
Cpq	SID315485692	ambion single siRNA	1.99
Cpq	SID315485693	ambion single siRNA	-0.605
Cpq	SID315485694	qiagen single siRNA	2.03 (active)
Cpq	SID315485695	qiagen single siRNA	2.54 (active)
Cpq	SID315485696	qiagen single siRNA	-0.661
Or8k35	SID315489267	qiagen single siRNA	3.73 (active)
Or8k35	SID315489268	qiagen single siRNA	-0.225
Or8k35	SID315489269	qiagen single siRNA	0.486
Ctif	SID315488787	ambion single siRNA	-2.81 (active)
Ctif	SID315488788	ambion single siRNA	-0.56
Ctif	SID315488789	ambion single siRNA	1.48
Ctif	SID315488790	qiagen single siRNA	0.684
Ctif	SID315488791	qiagen single siRNA	-0.53
Ctif	SID315488792	qiagen single siRNA	0.0398
Mobp	SID315484527	ambion single siRNA	2.78 (active)
Mobp	SID315484528	ambion single siRNA	-1.7
Mobp	SID315484529	ambion single siRNA	-3.28 (active)
Nab1	SID315484557	ambion single siRNA	-4 (active)
Nab1	SID315484558	ambion single siRNA	-2.18 (active)
Nab1	SID315484559	ambion single siRNA	-2.05 (active)
Nab1	SID315484560	qiagen single siRNA	-0.992
Nab1	SID315484561	qiagen single siRNA	0.35
Nab1	SID315484562	qiagen single siRNA	-3.77 (active)
Mrtfb	SID315488484	ambion single siRNA	-1.23
Mrtfb	SID315488485	ambion single siRNA	-4.94 (active)
Mrtfb	SID315488486	ambion single siRNA	-0.693
Mrtfb	SID315488487	qiagen single siRNA	0.62
Mrtfb	SID315488488	qiagen single siRNA	0.369
Mrtfb	SID315488489	qiagen single siRNA	-0.11
Galnt6	SID315488046	ambion single siRNA	-4.58 (active)
Galnt6	SID315488047	ambion single siRNA	-2.52 (active)
Galnt6	SID315488048	ambion single siRNA	-0.638
Galnt6	SID315488049	qiagen single siRNA	2.23 (active)
Galnt6	SID315488050	qiagen single siRNA	1.03
Galnt6	SID315488051	qiagen single siRNA	-2.75 (active)

A stretch of the results above, for reference:
gene symbol	PubChem SID	siRNA vendor or control pool	p65 translocation z-score, replicate mean
Calm4	SID315487057	qiagen single siRNA	0.25
Calm4	SID315487058	qiagen single siRNA	-1.38
Orc5	SID315485295	ambion single siRNA	-2.9 (active)
Orc5	SID315485296	ambion single siRNA	1.42
Orc5	SID315485297	ambion single siRNA	-2.07 (active)
Orc5	SID315485298	qiagen single siRNA	2.38 (active)
